Experimental data published in the supplement of paper PMC12819154, “High-throughput peptide-centric local stability assay extends protein–ligand identification to membrane proteins, tissues and bacteria” (Nature Structural & Molecular Biology, 2025).
The other results are listed elsewhere or left out. Most values lie at the level of the controls, where differences are scatter.

Chains of the proteins cited; added tags and fusions are not shown. Lines headed by an entry give the natural chain unless they say otherwise; changes in a name come on top.
UniProt Q91W90: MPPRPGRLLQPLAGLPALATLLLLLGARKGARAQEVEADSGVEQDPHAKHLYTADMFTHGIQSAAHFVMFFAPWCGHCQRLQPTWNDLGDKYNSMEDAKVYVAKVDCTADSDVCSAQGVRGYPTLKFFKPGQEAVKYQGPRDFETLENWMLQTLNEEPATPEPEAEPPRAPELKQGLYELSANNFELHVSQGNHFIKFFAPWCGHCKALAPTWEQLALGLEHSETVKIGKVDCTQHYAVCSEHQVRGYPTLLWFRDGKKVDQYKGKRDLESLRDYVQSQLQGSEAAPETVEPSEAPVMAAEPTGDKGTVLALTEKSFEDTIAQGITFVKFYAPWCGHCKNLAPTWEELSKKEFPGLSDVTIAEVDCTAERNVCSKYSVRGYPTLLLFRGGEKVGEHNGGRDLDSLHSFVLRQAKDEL
UniProt Q91VD9, whole entry: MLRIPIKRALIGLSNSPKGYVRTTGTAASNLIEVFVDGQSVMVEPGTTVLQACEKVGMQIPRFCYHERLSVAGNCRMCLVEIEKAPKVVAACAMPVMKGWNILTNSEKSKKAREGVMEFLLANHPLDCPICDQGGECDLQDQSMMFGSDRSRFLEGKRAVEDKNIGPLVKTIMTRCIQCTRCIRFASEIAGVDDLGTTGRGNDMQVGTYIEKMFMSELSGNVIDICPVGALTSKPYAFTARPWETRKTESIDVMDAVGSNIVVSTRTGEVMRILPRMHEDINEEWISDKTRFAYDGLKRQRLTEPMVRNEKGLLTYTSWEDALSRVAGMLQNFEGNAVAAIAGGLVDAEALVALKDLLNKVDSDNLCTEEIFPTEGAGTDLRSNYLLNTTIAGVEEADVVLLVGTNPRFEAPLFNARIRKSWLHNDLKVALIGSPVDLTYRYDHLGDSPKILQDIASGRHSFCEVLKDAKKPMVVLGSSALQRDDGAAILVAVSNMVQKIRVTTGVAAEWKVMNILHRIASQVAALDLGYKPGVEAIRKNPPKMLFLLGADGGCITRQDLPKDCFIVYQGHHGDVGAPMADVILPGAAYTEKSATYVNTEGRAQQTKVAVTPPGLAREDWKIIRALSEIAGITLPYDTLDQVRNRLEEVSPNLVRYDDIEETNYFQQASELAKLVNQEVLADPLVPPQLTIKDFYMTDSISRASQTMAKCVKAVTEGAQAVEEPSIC
UniProt Q8VDP6: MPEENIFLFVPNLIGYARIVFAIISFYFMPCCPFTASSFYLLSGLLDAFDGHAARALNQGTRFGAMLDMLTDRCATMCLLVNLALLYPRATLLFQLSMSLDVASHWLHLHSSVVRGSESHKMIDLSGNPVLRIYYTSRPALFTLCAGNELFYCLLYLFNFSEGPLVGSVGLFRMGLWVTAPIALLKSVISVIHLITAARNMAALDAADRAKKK
UniProt Q920L1: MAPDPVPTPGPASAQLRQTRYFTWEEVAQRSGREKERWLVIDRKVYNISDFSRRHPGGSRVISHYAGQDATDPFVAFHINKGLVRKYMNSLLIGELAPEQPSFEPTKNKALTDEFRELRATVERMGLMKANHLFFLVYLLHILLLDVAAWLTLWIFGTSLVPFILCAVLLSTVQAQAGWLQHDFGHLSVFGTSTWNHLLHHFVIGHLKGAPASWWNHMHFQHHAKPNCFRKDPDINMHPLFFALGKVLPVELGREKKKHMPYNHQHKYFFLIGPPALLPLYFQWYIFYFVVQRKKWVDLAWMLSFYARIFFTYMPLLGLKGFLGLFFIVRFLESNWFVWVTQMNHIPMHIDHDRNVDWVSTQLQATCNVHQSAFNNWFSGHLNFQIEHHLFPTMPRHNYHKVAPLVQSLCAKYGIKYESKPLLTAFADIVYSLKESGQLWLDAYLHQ
UniProt Q923B6: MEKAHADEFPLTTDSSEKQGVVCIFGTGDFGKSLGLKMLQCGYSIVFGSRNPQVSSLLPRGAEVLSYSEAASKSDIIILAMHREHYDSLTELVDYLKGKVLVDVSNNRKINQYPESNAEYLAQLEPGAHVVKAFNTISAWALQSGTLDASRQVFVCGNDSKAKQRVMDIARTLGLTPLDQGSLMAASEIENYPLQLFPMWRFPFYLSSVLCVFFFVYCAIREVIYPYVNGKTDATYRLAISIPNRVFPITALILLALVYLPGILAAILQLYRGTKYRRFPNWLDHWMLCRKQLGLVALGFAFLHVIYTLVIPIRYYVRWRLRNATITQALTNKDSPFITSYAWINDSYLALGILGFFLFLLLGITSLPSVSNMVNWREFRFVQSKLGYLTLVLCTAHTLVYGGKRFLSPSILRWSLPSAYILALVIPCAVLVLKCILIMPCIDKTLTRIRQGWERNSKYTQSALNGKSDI
UniProt Q91X21: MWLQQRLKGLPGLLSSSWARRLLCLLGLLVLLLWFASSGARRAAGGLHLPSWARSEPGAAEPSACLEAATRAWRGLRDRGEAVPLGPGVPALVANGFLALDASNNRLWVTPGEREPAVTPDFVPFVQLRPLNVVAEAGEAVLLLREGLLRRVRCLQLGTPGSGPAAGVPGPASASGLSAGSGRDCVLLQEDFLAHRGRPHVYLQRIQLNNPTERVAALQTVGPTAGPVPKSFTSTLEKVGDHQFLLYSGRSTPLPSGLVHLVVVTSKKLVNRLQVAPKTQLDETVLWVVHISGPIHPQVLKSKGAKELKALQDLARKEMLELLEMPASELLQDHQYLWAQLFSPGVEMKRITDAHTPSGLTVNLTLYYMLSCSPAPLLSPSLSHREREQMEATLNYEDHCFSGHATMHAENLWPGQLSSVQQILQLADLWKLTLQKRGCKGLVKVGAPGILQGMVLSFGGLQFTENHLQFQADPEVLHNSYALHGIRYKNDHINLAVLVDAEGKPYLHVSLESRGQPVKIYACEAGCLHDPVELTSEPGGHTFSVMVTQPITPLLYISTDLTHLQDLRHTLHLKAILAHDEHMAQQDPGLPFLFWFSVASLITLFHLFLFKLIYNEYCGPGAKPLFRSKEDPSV
UniProt Q91YW3: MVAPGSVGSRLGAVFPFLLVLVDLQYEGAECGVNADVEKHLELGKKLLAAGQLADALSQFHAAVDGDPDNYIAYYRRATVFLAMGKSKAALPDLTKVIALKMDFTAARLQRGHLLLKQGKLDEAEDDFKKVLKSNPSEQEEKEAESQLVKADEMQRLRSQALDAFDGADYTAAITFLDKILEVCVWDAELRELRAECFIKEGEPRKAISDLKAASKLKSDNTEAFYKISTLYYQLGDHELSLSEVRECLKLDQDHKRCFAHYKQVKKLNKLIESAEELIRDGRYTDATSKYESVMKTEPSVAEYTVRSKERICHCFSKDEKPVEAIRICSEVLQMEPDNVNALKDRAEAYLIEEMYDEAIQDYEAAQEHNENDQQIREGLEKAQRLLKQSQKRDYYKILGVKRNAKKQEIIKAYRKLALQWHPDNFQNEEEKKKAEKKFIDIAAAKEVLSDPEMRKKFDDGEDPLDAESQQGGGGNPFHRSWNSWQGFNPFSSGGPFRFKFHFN
UniProt Q8VCR7: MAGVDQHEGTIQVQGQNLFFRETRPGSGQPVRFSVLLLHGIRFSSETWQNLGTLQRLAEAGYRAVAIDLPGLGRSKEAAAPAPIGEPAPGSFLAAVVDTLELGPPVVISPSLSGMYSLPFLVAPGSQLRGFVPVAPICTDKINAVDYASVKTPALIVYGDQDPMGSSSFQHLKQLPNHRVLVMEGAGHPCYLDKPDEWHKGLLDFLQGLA
UniProt Q921F2, whole entry: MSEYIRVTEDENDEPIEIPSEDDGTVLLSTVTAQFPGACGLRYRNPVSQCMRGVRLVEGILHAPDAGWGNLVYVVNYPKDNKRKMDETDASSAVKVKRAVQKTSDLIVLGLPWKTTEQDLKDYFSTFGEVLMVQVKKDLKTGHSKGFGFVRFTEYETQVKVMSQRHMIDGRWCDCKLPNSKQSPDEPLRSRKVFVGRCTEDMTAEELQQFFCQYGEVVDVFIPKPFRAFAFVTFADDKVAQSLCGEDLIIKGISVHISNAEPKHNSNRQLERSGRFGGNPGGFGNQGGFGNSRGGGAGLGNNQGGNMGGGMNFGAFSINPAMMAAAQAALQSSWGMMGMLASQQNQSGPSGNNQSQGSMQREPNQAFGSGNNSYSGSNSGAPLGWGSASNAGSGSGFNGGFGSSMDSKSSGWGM
UniProt Q91ZZ3, whole entry: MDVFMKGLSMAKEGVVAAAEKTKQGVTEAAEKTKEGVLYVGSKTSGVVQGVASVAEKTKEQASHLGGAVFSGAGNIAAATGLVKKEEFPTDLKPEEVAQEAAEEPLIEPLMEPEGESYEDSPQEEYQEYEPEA
UniProt Q91VZ6: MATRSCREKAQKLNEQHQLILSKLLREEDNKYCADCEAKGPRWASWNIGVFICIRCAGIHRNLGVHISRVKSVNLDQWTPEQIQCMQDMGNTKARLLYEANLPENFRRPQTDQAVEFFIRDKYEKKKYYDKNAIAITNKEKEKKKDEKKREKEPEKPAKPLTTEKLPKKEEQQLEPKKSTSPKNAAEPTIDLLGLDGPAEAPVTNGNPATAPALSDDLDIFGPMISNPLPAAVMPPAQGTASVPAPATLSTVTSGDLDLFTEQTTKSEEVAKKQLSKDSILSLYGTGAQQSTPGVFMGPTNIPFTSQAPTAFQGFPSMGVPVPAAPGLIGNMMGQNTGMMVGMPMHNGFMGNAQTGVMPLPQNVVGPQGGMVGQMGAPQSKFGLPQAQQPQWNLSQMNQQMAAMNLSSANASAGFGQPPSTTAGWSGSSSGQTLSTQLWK
UniProt Q921H8: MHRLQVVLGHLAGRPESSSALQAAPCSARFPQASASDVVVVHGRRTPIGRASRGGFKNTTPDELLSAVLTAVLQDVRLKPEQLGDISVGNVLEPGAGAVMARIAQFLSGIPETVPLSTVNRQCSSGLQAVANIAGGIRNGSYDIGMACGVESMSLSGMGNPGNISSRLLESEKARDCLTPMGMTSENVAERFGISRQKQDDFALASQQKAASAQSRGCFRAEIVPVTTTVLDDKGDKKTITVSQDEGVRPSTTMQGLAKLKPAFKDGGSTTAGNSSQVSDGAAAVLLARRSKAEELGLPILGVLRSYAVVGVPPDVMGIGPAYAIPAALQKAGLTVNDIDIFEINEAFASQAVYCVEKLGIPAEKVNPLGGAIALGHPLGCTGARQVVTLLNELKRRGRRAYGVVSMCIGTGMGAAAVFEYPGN
UniProt Q91XC8: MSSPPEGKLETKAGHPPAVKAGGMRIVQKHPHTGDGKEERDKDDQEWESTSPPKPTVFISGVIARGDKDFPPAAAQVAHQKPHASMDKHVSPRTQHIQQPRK
UniProt Q91W98: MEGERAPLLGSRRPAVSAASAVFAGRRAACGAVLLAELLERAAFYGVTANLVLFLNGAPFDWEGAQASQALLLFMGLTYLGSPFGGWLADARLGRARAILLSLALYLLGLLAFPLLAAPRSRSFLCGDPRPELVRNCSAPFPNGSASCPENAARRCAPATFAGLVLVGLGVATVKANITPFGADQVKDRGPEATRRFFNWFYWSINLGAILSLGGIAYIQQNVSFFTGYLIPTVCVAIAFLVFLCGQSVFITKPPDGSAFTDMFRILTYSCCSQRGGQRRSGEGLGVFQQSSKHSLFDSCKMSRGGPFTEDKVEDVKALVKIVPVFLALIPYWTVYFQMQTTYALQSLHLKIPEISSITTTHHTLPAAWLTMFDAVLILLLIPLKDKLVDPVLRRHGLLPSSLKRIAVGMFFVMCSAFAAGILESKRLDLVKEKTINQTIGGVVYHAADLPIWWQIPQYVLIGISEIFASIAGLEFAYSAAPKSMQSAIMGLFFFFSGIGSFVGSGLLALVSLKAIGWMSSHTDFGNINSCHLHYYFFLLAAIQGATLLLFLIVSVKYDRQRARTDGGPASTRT
UniProt Q91VU0: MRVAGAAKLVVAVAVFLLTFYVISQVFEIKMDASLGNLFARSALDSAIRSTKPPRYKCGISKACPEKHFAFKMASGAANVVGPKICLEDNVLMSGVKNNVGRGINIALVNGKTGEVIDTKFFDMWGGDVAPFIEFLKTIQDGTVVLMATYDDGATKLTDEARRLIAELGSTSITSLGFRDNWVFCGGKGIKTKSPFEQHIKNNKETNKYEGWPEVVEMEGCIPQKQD
UniProt Q8VCT3: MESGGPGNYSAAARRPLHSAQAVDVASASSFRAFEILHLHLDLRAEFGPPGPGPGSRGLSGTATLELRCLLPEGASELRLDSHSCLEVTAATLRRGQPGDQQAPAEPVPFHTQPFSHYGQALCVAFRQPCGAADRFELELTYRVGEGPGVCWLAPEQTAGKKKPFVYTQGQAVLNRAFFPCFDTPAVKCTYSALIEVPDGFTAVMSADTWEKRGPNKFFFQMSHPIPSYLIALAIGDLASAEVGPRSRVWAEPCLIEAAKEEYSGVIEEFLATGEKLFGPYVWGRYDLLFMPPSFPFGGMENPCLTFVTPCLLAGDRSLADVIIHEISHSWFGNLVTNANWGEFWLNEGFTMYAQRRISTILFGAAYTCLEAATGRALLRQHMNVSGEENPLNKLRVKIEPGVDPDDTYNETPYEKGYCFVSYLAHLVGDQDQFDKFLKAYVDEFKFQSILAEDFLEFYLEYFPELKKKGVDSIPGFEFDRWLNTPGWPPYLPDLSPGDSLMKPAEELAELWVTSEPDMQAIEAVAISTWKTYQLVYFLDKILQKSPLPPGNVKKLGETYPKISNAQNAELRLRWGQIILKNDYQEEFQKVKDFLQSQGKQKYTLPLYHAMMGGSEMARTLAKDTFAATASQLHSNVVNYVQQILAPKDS

Each target was assayed with CN[C@@H]1C[C@H]2O[C@@](C)([C@@H]1OC)n1c3ccccc3c3c4c(c5c6ccccc6n2c5c31)C(=O)NC4 [staurosporine] (assay: log2 fold change of pooled soluble protein (PISA), ligand vs vehicle (log2 ratio); higher = more thermally stabilized). Conditions: ligand concentration: 20 uM; assay format: PISA pool 52.9/55.5/58.6 C.
For UniProt Q91YQ5, the “log2 fold change of pooled soluble protein” value (shortened to “log2 fold change”) was -0.23.
In the case of UniProt Q924M7, the “log2 fold change” value is reported as 0.0702.
With UniProt Q91VA0 the “log2 fold change” value was 0.018.
For UniProt Q91VM5, the “log2 fold change” value was 0.000474.
With UniProt Q91VM3 the “log2 fold change” value was -0.0762.
UniProt Q921M3 was tested, and the “log2 fold change” value was -0.0928.
In the case of UniProt Q8VE09, the “log2 fold change” value is reported as 0.278.
For UniProt Q924D0, the “log2 fold change” value was -0.194.
With UniProt Q8VE97 the “log2 fold change” value was -0.0932.
In the case of UniProt Q91W90, the “log2 fold change” value is reported as 0.167.
UniProt Q91YK2 was tested, and the “log2 fold change” value was -0.0148.
With UniProt Q91VD9 the “log2 fold change” value was -0.0516.
With UniProt Q8VDP6 the “log2 fold change” value was -0.367.
UniProt Q920L1 was tested, and the “log2 fold change” value was -0.132.
In the case of UniProt Q8VCN5, the “log2 fold change” value is reported as -0.031.
For UniProt Q8VI75, the “log2 fold change” value was -0.00788.
With UniProt Q923B6 the “log2 fold change” value was 0.0362.
For UniProt Q91VC4, the “log2 fold change” value was -0.0298.
With UniProt Q91X21 the “log2 fold change” value was 0.379.
In the case of UniProt Q91YW3, the “log2 fold change” value is reported as -0.125.
UniProt Q91ZA3 was tested, and the “log2 fold change” value was -0.126.
With UniProt Q8VCR7 the “log2 fold change” value was -0.0181.
For UniProt Q921F2, the “log2 fold change” value was -0.143.
With UniProt Q91WK5 the “log2 fold change” value was 0.0694.
For UniProt Q91ZZ3, the “log2 fold change” value was 0.0399.
In the case of UniProt Q921H9, the “log2 fold change” value is reported as 0.00456.
UniProt Q91VZ6 was tested, and the “log2 fold change” value was -0.123.
In the case of UniProt Q922D8, the “log2 fold change” value is reported as -0.109.
With UniProt Q921H8 the “log2 fold change” value was 0.0826.
With UniProt Q922E4 the “log2 fold change” value was -0.0778.
With UniProt Q91XC8 the “log2 fold change” value was 0.437.
For UniProt Q91W98, the “log2 fold change” value was -0.139.
In the case of UniProt Q8VEA4, the “log2 fold change” value is reported as 0.219.
In the case of UniProt Q91VU0, the “log2 fold change” value is reported as -0.0861.
UniProt Q8VDZ4 was tested, and the “log2 fold change” value was -0.0453.
In the case of UniProt Q91WG0, the “log2 fold change” value is reported as -0.0577.
In the case of UniProt Q8VCT3, the “log2 fold change” value is reported as 0.126.
